The source of these data is article PMC4059965.

By UniProt entry, the sequences of proteins in these tests, tags left out.
UniProt Q9NQU5: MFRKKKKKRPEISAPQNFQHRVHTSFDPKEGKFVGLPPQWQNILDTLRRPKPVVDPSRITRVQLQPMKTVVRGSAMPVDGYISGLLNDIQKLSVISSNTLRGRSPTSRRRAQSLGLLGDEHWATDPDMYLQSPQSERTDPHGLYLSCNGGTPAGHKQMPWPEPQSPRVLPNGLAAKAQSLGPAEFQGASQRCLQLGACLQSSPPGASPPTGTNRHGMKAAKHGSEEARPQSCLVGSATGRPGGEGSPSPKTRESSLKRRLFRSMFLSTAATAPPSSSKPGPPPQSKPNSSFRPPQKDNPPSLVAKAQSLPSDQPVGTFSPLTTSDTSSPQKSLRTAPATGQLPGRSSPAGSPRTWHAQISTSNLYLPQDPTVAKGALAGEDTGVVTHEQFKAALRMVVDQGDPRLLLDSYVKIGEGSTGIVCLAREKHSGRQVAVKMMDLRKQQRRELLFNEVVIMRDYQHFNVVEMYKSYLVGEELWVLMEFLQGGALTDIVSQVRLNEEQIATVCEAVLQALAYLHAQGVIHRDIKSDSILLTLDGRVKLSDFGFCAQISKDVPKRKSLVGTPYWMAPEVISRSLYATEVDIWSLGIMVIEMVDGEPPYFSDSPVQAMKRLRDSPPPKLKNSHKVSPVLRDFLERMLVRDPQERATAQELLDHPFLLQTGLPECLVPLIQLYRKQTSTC
UniProt P46940: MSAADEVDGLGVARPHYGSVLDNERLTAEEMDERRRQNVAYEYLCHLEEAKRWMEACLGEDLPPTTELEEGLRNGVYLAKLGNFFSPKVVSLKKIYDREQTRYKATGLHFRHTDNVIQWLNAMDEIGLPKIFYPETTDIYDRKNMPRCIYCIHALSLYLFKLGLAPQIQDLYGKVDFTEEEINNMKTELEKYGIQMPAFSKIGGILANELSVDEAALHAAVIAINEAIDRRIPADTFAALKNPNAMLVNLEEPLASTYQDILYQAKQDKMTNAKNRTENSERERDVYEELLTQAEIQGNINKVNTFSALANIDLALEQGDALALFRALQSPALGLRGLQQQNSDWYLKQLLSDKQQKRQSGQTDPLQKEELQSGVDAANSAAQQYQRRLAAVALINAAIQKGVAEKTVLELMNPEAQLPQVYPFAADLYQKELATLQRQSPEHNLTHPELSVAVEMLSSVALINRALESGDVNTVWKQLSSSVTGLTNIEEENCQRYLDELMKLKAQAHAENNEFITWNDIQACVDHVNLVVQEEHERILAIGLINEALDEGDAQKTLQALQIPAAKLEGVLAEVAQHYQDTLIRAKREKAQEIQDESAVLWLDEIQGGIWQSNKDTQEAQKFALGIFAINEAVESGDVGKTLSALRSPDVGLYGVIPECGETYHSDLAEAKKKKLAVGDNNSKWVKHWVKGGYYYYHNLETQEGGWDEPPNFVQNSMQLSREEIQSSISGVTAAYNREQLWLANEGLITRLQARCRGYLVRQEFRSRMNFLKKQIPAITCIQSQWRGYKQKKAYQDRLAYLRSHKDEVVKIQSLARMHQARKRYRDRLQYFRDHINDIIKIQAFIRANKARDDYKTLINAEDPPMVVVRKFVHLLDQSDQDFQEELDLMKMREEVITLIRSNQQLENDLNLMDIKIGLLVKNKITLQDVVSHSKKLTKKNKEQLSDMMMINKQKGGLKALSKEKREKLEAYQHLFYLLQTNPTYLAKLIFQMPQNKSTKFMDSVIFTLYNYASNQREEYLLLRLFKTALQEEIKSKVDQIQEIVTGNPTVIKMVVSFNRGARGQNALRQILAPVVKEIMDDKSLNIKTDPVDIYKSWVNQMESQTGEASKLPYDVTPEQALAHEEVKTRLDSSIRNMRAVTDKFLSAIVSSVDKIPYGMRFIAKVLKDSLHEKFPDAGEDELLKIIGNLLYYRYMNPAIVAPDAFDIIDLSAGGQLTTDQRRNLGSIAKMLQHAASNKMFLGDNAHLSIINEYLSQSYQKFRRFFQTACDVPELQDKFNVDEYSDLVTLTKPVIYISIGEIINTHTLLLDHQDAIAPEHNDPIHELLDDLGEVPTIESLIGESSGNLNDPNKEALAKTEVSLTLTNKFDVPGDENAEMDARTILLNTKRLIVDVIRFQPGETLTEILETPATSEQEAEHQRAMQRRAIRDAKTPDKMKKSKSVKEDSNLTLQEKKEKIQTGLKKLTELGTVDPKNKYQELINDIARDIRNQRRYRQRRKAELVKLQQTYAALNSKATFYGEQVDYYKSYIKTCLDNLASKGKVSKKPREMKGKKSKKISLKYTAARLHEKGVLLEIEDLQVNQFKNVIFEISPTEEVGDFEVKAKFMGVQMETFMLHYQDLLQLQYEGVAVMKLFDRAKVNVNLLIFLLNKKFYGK
UniProt P35222: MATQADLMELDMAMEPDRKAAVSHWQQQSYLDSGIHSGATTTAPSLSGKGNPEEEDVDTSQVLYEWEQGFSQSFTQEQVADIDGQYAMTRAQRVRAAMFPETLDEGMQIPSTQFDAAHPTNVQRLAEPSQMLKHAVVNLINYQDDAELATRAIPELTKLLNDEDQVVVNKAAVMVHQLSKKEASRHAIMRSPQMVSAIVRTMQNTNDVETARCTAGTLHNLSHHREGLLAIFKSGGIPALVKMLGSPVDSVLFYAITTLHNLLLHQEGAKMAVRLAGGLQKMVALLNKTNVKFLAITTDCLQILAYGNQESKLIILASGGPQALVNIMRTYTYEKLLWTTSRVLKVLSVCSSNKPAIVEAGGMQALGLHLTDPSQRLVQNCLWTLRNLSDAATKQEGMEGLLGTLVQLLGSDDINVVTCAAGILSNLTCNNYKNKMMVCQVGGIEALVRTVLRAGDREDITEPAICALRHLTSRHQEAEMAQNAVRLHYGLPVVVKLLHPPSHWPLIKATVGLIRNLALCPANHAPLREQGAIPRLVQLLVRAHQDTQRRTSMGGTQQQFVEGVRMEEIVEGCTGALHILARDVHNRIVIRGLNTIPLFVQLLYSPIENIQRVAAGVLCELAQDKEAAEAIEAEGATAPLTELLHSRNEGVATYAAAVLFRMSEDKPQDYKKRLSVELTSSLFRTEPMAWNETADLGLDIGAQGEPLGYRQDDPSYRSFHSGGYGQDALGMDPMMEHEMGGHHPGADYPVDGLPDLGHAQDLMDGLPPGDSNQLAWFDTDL

Results are given in words; binding and its absence hold for the method and conditions named. In cells and extracts the contact can be indirect. Some binding calls cover weakened binding; strength is not graded here.

One assay has as its target GST-PAK6 (human) (UniProt Q9NQU5). Put plainly: pull-down; GST-PAK6 on glutathione Sepharose beads with DU145 cell lysates (serum-starved or stimulated with HGF 250 ng/ml, 4 h or 8 h), NP-40 lysis buffer, 2 h at 4 °C, immunoblot for the endogenous proteins; only the target purified.
For another assay, the target named is Myc-PAK6^wt (human) (UniProt Q9NQU5). The assay can be described thus: co-IP; HEK293 cells transfected; lysates pre-cleared, primary antibody (anti-GFP or anti-c-Myc) overnight at 4 °C, protein A or G Sepharose, washed three times with lysis buffer, immunoblot. A general note: In western blotting, separated proteins are transferred to a membrane and probed.
For another assay, the target named is IQGAP1-GFP^wt (UniProt P46940). The assay is described as above.

As to “endogenous IQGAP1 (DU145) (from UniProt P46940 1-1657)”, in the assay with GST-PAK6 (human), the binding result is listed as “binds”.
As for “GFP-β-catenin^wt (from UniProt P35222 1-781)”, the binding entry in the assay with Myc-PAK6^wt (human) is listed as “binds”.
For “endogenous PAK6 (HEK293) (from UniProt Q9NQU5 1-681)”, in the assay with IQGAP1-GFP^wt, the binding entry is given as “binds”.
